Results as given in patent US5688767A, “Treatment of endotoxin-associated disorders with cationic peptides” (priority 1996, dated 1997).
At least one peptide structure holds a part that was inferred or is arguable (an end, a ring closure or a residue).

Assays:
[1] = target: P. aeruginosa H103 LPS; experiment: Dansyl polymyxin (DPx) displacement from purified LPS; assay type: binding, Pseudomonas aeruginosa; settings: 2.5 μM DPx, 3 μg/ml LPS, 5 mM HEPES pH 7.2, average of at least three trials
Method: In this assay, DPx was incubated with LPS to saturate the binding sites and then, while polycationic compounds are titrated into the reaction, displacement of the DPx was monitored by the decrease in fluorescence (FIG. 9). P. aeruginosa LPS was isolated as previously described (Darveau, et al., J of Bacteriology, 155:831, 1983) Dansyl polymyxin was synthesized as described by Schindler, et al., B. Antimicrobial Agents and Chemo, 8:95, 1975.
The method of Moore, et al., (Antimicrobial Agents and Chemo., 29:496, 1987), was used to test how much DPx was needed to saturate the binding sties on LPS. Briefly, 5 μl samples of 100 μM DPx were titrated sequentially into 1 ml of 3 μg/ml of LPS until a maximum fluorescence was reached. The fluorescence was measured in a Perkin-Elmer 650-10S fluorescence spectrophotometer with an excitation wavelength of 340 nm and an emission wavelength of 485 nm using slit widths of 5 nm. […] For the binding inhibition assays (Moore, et al., Antimicrobial Agents and Chemo., 29:496, 1987), 2.5 μM DPx was added to 3 μg/ml of H103 LPS in 5 mM HEPES pH 7.2. The test compounds were added 5 μl at a time and the decrease in fluorescence due to displacement of the DPx from the LPS was recorded.
When the data was plotted as a double reciprocal plot (FIG. 10), the X-intercept provided a value that is equal to -1/I50.

[2] = system: LPS-induced TNF in RAW 264.7 macrophage cells; experiment: Inhibition of LPS-mediated TNF induction in RAW 264.7 macrophages (L929 cytotoxicity readout); assay type: cell-based, murine
Method: The effect of CEME and CEMA peptides on LPS-induced TNF in macrophages was examined. RAW 264.7 macrophage cells were grown by seeding 10^6 cells into a 162 cm^2 cell culture flask and incubated at 37° C., 5% CO2 for 1 week. RAW cell media (Dulbecco's Modified Eagle Medium with Hepes buffer 450 ml; 2.4 mM L-glutamine 3 ml (400 mM); Pen/Strep 3 ml (10^4 U/ml of Pen, 1 mg/ml strep); and 10% heat inactivated fetal bovine serum (FBS) 50 ml) was then completely removed from flasks. 10 mls of cell dissociation solution (Sigma) was added to each flask and incubated at 37° C. for 10 minutes. Cells were removed from flasks, diluted in RAW cell media and centrifuged for 6 minutes. The cell pellet was resuspended in 5 ml of media/flask used. […] cell suspension was removed and added to 400 μl of trypan blue and cells were counted using a hemocytometer. The cell suspension was diluted to 1×10^6cells/ml and 1 ml of suspension was added per well of a 24 well plate. The 24 well plates were incubated at 37° C., 5% CO2 overnight for use in the assay.
After an overnight incubation, the media was aspirated from all the wells. 100 μl of Lipopolysaccharide (LPS) was added at 100 ng/100 μl. CEME or CEMA was added at the desired concentration/100 μl to specified wells. […] The plates were then incubated for six hours at 37° C., 5% CO2. The supernatant was then removed from the wells and stored overnight at 4° C. For those wells in which whole bacteria were added directly to the wells, the supernatant was centrifuged in 0.2 μm filter eppendorf tubes for 5 minutes.
The supernatants were then used in cell cytotoxic L929 assay. The samples were transferred to 96 well plates. 50 μl of TNF media was added to all the wells in all the plates except to those wells in the first row. 10 μl of murine TNF standard (20 ng/ml) and 90 μl of TNF media was added in duplicate to the plate and diluted 1:2 down the plate to the second to last row. Test samples (75 μl), comprising of the supernatants from the RAW cell assays, were added to separate rows in duplicate and diluted 1:3 to the second to last rows.
TNF-sensitive L929 mouse fibroblast cells were grown by seeding 10^6 cells into a 162 cm^2 cell culture flask and left to grow for 1 week. L929 cells were removed from the flask with 10 mls of trypsin-EDTA/flask and incubated 3-5 minutes. Cell suspension was diluted and centrifuged for 6 minutes. The pellet was resuspended in 5 mls of fresh L929 media/flask and counted (same as RAW cells). Cell suspension was diluted to 10^6 cells/ml. 100 μl was used to inoculate each well of the 96 well plates with the supernatants. (L929 Growth Media was the same as RAW cell media except instead of FBS, 50 mls of 10% heat inactivated horse serum was utilized; TNF Assay Media was the same as RAW cell media except 4 μg/ml Actinomycin D was added.)
The plates were incubated at 37° C. at 5% CO2 for 2 days. The media was then aspirated and replaced with 100 μl of the dye MTT (0.5 mg/ml) in modified Eagle Medium without phenol red. The plates were then incubated at 37° C. at 5% CO2 for 3 hours. The dye was then removed and replaced with 100 μl of absolute ethanol. The plates were left at room temperature for 10-15 minutes to dissolve the formazan dye crystals.
The plates were read at 570 nm in a ELISA plate reader with 690 nm reference filter. One unit of TNF activity is defined as the amount required to kill 50% of the L929 cells. The TNF level in Units per ml therefore was the reciprocal of the dilution which led to a 50% killing of L929 cells. […]
The murine cell line RAW 264.7 was obtained from ATCC, (Rockville, Md.), and maintained and passaged as described previously (Kelly, et al., supra). TNF induction experiments with LPS were performed as described by Kelly, et al. (supra) Briefly, Dulbecco's modified Eagle medium was aspirated from RAW 264.7 cell grown overnight in 24 well tissue culture plates after seeding with 10^6 cell per ml per well and replaced with fresh medium. […]

[3] = 100 ng purified E. coli 0111:B4 LPS, 20 μg of peptide or polymyxin B

## CC[C@H](C)[C@H](NC(=O)CNC(=O)[C@@H](NC(=O)[C@H](CCCCN)NC(=O)[C@H](CCCCN)NC(=O)[C@H](Cc1ccccc1)NC(=O)[C@H](CC(C)C)NC(=O)[C@H](CCCCN)NC(=O)[C@H](Cc1c[nH]c2ccccc12)NC(=O)[C@@H](N)CCCCN)[C@@H](C)CC)C(=O)NCC(=O)N[C@@H](C)C(=O)N[C@H](C(=O)N[C@@H](CC(C)C)C(=O)N[C@@H](CCCCN)C(=O)N[C@H](C(=O)N[C@@H](CC(C)C)C(=O)N[C@H](C(=O)N[C@H](C(=O)NCC(=O)N[C@@H](CC(C)C)C(=O)N1CCC[C@H]1C(=O)N[C@@H](C)C(=O)N[C@@H](CC(C)C)C(=O)N[C@H](C(=O)N[C@@H](CO)C(=O)O)[C@@H](C)CC)[C@@H](C)O)[C@@H](C)O)C(C)C)C(C)C [CEME]
[1]
  I50, Value in μg/ml: 9.51 ± 3.91 µg/mL
[1]; read-out: I50, Value in μM
  IC50: 3.52 ± 1.45 µM
[2]; 100 ng of E. coli 0111:B4 or E. coli Bort LPS, 6 hour
  concentration of peptide that efficiently reduces LPS-induced TNF: ≤ 5 µg/mL
[2]; [3]
  Unit of TNF induced: 566 ± 14 units/ml
  Unit of TNF induced (% of control): 5.8%
[2]; 2 μg/ml of peptide, E. coli 0111:B4 LPS 100 ng/ml
  reduction of TNF induction: more than 50%
[2]; 20-50 μg/ml of peptides, E. coli 0111:B4 LPS 100 ng/ml
  blockage of TNF induction, in words: almost complete blockage
[2]; CEME at the MIC (1.2-2.4 μg/ml), maximum over Table 6
  inhibition of TNF production: ≤ 91%
[2]; E. coli LPS 10 ng/ml, CEME 2.4 μg/ml
  TNF Induction (% of Control): 9 % of Control
[2]; E. coli LPS 100 ng/ml, CEME 2.4 μg/ml
  TNF Induction (% of Control): 34 % of Control
[2]; P. aeruginosa LPS 10 ng/ml, CEME 1.2 μg/ml
  TNF Induction (% of Control): 40 % of Control
[2]; P. aeruginosa LPS 10 ng/ml, CEME 2.4 μg/ml
  TNF Induction (% of Control): 10 % of Control
[2]; P. aeruginosa LPS 100 ng/ml, CEME 1.2 μg/ml
  TNF Induction (% of Control): 92 % of Control
[2]; P. aeruginosa LPS 100 ng/ml, CEME 2.4 μg/ml
  TNF Induction (% of Control): 59 % of Control
